{
  "source": "patent US9101628B2",
  "about": "“Methods and composition of treating a flaviviridae family viral infection” (The Board of Trustees of the Leland Stanford Junior …, priority 2007, dated 2015)",
  "tested_on": "HCV RNA replication",
  "assay": "RNA replication inhibition assay (luciferase reporter-linked HCV genome)",
  "conditions": "Hepatitis C virus, percentage of untreated control population",
  "data": [
    {"compound": "Oc1cc2ncn(Cc3ccc(Cl)cc3)c2cc1O", "note": "[Compound 62]", "values": [
      {"measurement": "activity at 5 µM", "setting": "read-out: Residual Luciferase activity, 5 micromolar", "result": "< 20", "unit": "%"},
      {"measurement": "activity at 10 µM", "setting": "read-out: Residual Luciferase activity, 10 micromolar", "result": "< 20", "unit": "%"}
    ]}
  ]
}
